Test results published in patent US20180371066A1.

Molecular target: Wild-Type Mouse (brain tissue) (Mus musculus)
Test: immunostaining of brain sections

Binder | binding
VH3/VK2 humanized anti-tau antibody (antibody, human IgG4 S228P, kappa, V domains shown) VH: EVQVVESGGGLVQPGGSLKLSCVVSGFTFSNYWVNWVRQAPGKGLEWVAQIRLKSDNYATHYEESVKGRFTISRDDSKNSVYLQMNSLRAEDTAIYYCTNWEDYWGQGTTVTVSS VL: DIVLTQSPDSLAVSLGERATISCRASQSVSTSRYSYIHWYQQKPGQPPKLLIKYASNLESGVPSRFSGSGSGTDFTLNIHPLEPEDFATYYCHHSWEIPLTFGQGTKLEIKR | no binding
chimeric HJ8.5 monoclonal antibody (antibody, V domains shown) VH: EVKVEESGGGLVQPGGSMKLSCVVSGFTFSNYWVNWVRQSPEKGLEWVAQIRLKSDNYATHYEESVKGRFTISRDDSKSSVYLQMNNLRAEDSGIYYCTNWEDYWGQGTTLTVSS VL: DIVLTQSPASLAVSLGQRATISCRASQSVSTSRYSYIHWYQQKPGQPPKLLIKYASNLESGVPARFSGSGSGTDFTLNIHPLEEEDAATYYCHHSWEIPLTFGAGTKLELK | no binding
VH1/VK2 humanized anti-tau antibody (C2N-8E12) (antibody, human IgG4 S228P, kappa, V domains shown) VH: EVKVVESGGGLVQPGGSMKLSCVVSGFTFSNYWVNWVRQAPGKGLEWVAQIRLKSDNYATHYEESVKGRFTISRDDSKSSVYLQMNNLRAEDSGIYYCTNWEDYWGQGTTVTVSS VL: DIVLTQSPDSLAVSLGERATISCRASQSVSTSRYSYIHWYQQKPGQPPKLLIKYASNLESGVPSRFSGSGSGTDFTLNIHPLEPEDFATYYCHHSWEIPLTFGQGTKLEIKR | no binding
VH2/VK2 humanized anti-tau antibody (antibody, human IgG4 S228P, kappa, V domains shown) VH: EVKVVESGGGLVQPGGSLKLSCVVSGFTFSNYWVNWVRQAPGKGLEWVAQIRLKSDNYATHYEESVKGRFTISRDDSKSSVYLQMNSLRAEDTGIYYCTNWEDYWGQGTTVTVSS VL: DIVLTQSPDSLAVSLGERATISCRASQSVSTSRYSYIHWYQQKPGQPPKLLIKYASNLESGVPSRFSGSGSGTDFTLNIHPLEPEDFATYYCHHSWEIPLTFGQGTKLEIKR | no binding

These are yes or no findings as the source states them, for the method shown.
